Reference: publication PMC9352551
These are yes or no findings as the source states them, for the method shown. Some results given as binding are weak or reduced against the parent protein; the word gives no strength. Where a sequence is shown, tags or fusion partners need not be part of it.

Molecular target: T1, his-Par-6 (Drosophila) (UniProt O97111)
T1 sequence: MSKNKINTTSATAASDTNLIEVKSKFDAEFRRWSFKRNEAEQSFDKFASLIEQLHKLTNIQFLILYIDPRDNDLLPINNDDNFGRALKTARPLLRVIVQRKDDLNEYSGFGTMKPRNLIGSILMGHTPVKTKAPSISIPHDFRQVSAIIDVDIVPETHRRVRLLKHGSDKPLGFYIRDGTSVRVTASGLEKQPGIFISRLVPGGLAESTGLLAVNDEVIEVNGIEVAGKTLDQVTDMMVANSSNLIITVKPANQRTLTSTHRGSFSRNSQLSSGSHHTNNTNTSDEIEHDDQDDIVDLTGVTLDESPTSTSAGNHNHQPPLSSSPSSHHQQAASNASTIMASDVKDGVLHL
Assay: co-purification (his-tag affinity resin, then anion exchange); his-Par-6 and untagged aPKC co-expressed in 293F cells; lysate on HisPur Ni-NTA or cobalt resin, then Source Q with a gradient of 100 to 550 mM NaCl

binding: binds
B1: aPKC (enzyme, UniProt A1Z9X0 1-606)
chain: MQKMPSQILNDGSSVSLNSASMNMANTPNSITVKTAYNGQIIITTINKNISYEELCYEIRNICRFPLDQPFTIKWVDEENDPCTISTKMELDEAIRLYEMNFDSQLVIHVFPNVPQAPGLSCDGEDRSIYRRGARRWRKLYRVNGHIFQAKRFNRRAFCAYCQDRIWGLGRQGFKCIQCKLLVHKKCHKLVQKHCTDQPEPLVKERAEESSDPIPVPLPPLPYEAMSGGAEACETHDHAHIVAPPPPEDPLEPGTQRQYSLNDFELIRVIGRGSYAKVLMVELRRTRRIYAMKVIKKALVTDDEDIDWVQTEKHVFETASNHPFLVGLHSCFQTPSRLFFVIEFVRGGDLMYHMQRQRRLPEEHARFYAAEISLALNFLHEKGIIYRDLKLDNVLLDHEGHIKLTDYGMCKEGIRPGDTTSTFCGTPNYIAPEILRGEDYGFSVDWWALGVLLYEMLAGRSPFDLAGASENPDQNTEDYLFQVILEKTIRIPRSLSVRAASVLKGFLNKNPADRLGCHRESAFMDIVSHPFFKNMDWELLERKQVTPPFKPRLDSDRDLANFPPEFTGEAVQLTPDDDHVIDNIDQSEFEGFEYVNPLLMSLEDCV
